In the supplement of paper PMC10849652:
Some of the results follow.

The chains behind the UniProt entries cited, without tags or fusion partners. Where a name states a change or a piece, a line headed by the entry shows the natural chain unless it says otherwise.
UniProt O00468: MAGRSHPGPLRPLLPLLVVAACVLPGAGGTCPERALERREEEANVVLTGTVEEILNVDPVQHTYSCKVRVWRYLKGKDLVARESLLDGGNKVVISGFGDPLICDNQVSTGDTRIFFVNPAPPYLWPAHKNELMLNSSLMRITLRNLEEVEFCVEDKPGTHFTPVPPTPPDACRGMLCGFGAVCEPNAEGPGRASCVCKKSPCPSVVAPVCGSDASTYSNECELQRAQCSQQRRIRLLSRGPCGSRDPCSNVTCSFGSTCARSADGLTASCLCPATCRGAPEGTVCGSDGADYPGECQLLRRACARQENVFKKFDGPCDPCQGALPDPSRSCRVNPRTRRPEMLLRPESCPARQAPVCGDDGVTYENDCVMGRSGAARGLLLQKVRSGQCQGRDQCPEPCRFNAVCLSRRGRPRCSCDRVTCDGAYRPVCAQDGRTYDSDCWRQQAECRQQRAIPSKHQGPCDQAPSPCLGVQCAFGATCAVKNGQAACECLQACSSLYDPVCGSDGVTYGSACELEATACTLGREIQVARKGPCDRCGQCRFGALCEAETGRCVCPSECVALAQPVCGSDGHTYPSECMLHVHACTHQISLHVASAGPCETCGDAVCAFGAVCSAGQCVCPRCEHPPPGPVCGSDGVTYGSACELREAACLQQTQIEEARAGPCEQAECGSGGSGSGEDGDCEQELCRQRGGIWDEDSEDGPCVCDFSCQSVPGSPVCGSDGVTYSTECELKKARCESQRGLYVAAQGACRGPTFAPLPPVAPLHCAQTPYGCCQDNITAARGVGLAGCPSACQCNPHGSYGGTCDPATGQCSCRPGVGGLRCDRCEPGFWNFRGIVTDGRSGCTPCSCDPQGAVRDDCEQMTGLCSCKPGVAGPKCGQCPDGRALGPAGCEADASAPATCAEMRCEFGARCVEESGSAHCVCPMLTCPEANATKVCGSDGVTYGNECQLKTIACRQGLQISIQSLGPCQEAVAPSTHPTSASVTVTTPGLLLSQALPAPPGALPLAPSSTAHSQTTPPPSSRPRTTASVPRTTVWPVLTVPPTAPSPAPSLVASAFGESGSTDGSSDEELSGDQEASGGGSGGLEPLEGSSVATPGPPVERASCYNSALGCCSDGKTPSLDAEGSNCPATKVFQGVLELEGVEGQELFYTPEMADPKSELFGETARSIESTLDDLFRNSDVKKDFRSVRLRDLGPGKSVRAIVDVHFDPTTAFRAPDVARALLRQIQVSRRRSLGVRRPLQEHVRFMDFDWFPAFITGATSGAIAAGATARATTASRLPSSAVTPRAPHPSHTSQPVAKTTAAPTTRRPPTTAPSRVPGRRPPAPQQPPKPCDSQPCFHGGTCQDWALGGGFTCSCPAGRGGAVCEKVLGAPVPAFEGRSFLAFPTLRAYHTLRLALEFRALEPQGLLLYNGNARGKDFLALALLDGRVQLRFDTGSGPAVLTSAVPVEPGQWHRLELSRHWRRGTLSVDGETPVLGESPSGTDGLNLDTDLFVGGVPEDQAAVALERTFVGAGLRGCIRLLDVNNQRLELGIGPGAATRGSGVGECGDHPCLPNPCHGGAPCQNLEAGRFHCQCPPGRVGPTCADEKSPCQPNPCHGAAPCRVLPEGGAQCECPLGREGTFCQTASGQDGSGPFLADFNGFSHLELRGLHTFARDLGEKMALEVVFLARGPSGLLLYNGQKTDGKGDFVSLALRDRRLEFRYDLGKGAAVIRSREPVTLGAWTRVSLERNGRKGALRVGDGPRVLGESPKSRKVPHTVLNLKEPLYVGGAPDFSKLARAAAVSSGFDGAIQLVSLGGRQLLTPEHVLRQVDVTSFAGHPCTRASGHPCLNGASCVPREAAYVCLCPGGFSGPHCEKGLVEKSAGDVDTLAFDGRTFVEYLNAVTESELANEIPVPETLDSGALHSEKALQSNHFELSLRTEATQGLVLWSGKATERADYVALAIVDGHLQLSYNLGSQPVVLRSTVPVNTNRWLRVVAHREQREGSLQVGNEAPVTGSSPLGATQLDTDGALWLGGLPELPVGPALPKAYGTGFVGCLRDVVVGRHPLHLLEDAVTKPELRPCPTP
UniProt P27144: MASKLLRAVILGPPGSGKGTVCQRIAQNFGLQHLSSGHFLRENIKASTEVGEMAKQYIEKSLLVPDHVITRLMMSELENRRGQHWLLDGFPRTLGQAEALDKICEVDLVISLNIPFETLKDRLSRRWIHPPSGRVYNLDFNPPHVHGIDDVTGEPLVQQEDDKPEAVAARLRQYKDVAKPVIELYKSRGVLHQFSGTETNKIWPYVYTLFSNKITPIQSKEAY
UniProt Q9UIJ7: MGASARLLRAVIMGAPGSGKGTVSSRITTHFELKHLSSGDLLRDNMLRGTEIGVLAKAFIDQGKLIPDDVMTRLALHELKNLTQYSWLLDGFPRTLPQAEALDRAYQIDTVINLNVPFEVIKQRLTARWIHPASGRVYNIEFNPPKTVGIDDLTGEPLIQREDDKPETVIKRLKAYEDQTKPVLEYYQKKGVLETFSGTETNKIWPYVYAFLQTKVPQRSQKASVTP
UniProt Q9BRQ8: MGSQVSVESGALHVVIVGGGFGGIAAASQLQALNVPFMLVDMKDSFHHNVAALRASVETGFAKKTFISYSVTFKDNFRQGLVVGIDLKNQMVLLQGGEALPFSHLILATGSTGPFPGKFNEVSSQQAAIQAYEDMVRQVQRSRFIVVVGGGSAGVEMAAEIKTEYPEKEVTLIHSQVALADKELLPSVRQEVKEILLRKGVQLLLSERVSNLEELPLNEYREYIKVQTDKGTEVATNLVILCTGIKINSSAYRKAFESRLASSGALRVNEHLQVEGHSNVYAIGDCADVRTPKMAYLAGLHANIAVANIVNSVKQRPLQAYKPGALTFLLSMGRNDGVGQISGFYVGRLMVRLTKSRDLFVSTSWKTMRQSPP
UniProt Q96EY9: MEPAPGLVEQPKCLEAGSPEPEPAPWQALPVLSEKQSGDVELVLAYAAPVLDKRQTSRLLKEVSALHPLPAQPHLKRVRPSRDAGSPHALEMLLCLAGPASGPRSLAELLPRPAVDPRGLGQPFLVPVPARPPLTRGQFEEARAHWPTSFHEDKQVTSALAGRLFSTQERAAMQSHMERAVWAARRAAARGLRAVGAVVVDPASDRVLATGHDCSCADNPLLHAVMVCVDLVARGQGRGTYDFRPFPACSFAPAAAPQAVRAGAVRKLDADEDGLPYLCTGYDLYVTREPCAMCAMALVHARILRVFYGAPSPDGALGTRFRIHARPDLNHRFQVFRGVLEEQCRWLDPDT
UniProt Q9NX46: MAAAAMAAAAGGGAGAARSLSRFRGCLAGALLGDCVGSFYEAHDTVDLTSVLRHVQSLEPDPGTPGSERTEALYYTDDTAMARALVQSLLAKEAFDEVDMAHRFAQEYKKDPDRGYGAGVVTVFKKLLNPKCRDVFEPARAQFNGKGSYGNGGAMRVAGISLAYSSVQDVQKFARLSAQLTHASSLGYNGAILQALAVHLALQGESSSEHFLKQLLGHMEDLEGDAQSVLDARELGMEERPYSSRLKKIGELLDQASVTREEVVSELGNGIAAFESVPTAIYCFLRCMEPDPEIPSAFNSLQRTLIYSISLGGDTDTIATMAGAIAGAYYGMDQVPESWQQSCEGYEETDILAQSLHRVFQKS
UniProt P24666: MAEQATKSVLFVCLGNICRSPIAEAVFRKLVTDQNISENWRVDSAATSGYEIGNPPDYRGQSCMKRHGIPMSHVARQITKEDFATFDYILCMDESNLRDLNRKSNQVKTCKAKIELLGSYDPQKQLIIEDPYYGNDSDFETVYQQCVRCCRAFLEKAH
UniProt P23526: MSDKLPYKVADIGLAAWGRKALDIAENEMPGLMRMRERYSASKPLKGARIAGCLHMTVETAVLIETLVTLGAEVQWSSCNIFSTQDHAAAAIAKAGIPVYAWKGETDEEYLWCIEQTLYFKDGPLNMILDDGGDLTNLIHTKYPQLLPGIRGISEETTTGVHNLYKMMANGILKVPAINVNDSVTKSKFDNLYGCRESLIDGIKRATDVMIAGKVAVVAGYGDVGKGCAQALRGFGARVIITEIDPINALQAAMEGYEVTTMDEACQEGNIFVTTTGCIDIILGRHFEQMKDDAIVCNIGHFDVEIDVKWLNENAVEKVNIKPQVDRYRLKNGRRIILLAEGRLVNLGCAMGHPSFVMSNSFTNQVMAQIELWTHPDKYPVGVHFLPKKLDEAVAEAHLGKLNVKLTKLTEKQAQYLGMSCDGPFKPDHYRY
UniProt P12814, whole entry, looked up: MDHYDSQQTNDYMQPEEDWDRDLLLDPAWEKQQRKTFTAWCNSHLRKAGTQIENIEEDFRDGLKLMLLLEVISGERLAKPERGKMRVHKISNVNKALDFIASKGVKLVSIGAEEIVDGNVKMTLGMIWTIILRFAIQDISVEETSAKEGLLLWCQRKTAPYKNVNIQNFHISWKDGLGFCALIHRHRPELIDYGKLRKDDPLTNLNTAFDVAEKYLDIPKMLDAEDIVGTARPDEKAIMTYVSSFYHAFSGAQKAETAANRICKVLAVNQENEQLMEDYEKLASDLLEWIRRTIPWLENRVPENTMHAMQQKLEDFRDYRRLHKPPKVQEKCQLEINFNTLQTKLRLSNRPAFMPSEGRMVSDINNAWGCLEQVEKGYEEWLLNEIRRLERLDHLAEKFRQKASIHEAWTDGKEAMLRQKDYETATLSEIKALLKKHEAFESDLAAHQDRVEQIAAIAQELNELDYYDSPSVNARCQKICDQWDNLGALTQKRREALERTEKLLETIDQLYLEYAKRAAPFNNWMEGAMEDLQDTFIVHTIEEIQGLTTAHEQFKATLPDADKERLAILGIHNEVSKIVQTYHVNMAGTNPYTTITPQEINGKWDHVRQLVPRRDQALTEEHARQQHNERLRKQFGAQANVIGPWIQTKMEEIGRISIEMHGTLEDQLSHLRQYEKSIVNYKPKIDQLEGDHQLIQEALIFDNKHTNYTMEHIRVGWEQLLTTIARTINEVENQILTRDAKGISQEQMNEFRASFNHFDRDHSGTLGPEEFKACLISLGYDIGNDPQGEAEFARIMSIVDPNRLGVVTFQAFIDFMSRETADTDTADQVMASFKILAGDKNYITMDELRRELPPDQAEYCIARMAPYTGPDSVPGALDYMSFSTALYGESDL
UniProt Q9NUB1: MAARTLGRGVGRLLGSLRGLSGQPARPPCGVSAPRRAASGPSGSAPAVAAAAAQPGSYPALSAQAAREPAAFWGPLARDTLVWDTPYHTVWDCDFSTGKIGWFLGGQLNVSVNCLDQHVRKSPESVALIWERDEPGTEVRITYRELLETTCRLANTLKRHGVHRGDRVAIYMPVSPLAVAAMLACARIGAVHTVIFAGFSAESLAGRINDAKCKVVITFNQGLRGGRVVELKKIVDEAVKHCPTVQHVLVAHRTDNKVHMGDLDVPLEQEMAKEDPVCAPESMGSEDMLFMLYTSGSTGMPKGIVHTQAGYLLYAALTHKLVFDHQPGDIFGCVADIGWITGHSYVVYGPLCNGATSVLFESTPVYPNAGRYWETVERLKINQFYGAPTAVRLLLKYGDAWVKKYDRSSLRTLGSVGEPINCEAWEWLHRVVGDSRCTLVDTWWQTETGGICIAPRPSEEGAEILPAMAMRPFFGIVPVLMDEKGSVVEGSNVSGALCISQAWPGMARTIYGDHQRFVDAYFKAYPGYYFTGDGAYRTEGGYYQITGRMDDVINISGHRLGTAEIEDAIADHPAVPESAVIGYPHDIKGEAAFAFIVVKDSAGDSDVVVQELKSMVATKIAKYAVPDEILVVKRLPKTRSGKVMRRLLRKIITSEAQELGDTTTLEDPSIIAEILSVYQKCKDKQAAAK
UniProt O15254: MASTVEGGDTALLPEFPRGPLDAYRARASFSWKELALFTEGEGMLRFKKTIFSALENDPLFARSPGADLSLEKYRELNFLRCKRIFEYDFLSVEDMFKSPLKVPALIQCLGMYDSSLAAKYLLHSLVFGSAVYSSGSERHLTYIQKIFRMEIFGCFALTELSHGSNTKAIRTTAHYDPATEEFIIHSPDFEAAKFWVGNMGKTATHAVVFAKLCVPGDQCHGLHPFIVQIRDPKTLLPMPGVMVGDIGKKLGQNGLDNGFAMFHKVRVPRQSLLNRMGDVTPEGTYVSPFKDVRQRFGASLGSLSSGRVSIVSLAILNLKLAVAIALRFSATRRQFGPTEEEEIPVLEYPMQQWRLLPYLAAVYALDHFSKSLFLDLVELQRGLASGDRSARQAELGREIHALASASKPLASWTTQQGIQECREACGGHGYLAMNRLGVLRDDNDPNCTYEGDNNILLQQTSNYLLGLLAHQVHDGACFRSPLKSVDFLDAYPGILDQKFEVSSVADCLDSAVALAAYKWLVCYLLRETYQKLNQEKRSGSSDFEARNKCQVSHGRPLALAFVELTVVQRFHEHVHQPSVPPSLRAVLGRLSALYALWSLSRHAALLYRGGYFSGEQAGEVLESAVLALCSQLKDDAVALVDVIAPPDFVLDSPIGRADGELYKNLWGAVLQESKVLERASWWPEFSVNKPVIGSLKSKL

Tests used:
Experiment in all cases: log2 fold change, soluble protein after heating vs DMSO (PISA); higher = thermal stabilisation; K562 lysate, 10 uM; active = over 0.2 and 3.5 SD of the protein, either way, in both replicates (recomputed)
[1] = compound: C1=CC=C(C=C1)[C@H](COC2=CC3=C(C=C2)NC(=O)N3)NC(=O)C4=CC=CN(C4=O)CC5=CC(=C(C=C5)F)F
Summary of the method: (§1)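 Values give the log-two fold change in thermal stability against solvent controls, from duplicates. Crude K562 extract at 1 mg/mL protein, made by dounce homogenisation in PBS pH 7.4 with 1 mM MgCl2, was treated with 10 μM compound for 30 min. After 3 min heating across 48°C-58°C, aliquots were pooled, adjusted to 0.5% NP-40 at 4°C and centrifuged at 21,000xg for 90 min. The supernatant was measured by TMTpro 16plex LC-MS/MS with channel sums equalised.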

[2] = compound: CC1=C(SC2=C1C(=N[C@H](C3=NN=C(N32)C)CC(=O)N)C4=CC=C(C=C4)Cl)C
Summary of the method: as §1

[3] = compound: CC1=C2C(=CC=C1)N=C(N(C2=O)C3=CC=CC=C3C)CN4C=NC5=C(N=CN=C54)N
Summary of the method: as §1

[4] = compound: Cc1sc2c(c1C)C(c1ccc(Cl)cc1)=N[C@@H](CC(=O)OC(C)(C)C)c1nnc(C)n1-2
Summary of the method: as §1

[5] = compound: c1ccc([C@@H]2C[C@H]2NC2CCNCC2)cc1
Summary of the method: as §1

Measured: log2 fold change

ACTR1A (UniProt P61163)
inactive: [1] 0.012 | [2] 0.02 | [3] -0.013 | [4] -0.012 | [5] -0.063

ACOX1 isoform 2 (UniProt Q15067)
inactive: [1] 0.035 | [2] -0.002 | [3] -0.026 | [4] -0.018 | [5] -0.037

AGRN (UniProt O00468)
inactive: [1] 0.04 | [2] -0.127 | [3] -0.175 | [4] 0.1 | [5] -0.048

AFP (UniProt P02771)
inactive: [1] 0.022 | [2] -0.046 | [3] 0.014 | [4] -0.008 | [5] 0.033

AK4 (UniProt P27144)
inactive: [1] 0.025 | [2] -0.038 | [3] 0.059 | [4] 0.024 | [5] 0.026

ADAMTS5 (UniProt Q9UNA0)
inactive: [1] 0.032 | [2] 0.115 | [3] 0 | [4] -0.136
active: [5] -0.481

AK3 (UniProt Q9UIJ7)
inactive: [1] 0.017 | [2] -0.021 | [3] -0.001 | [4] 0.012 | [5] 0.016

AGFG1 isoform 4 (UniProt P52594)
inactive: [1] 0.066 | [2] -0.029 | [3] -0.033 | [4] 0.049 | [5] -0.02

AFDN (UniProt J3KN01)
inactive: [1] -0.051 | [2] 0.024 | [3] 0.001 | [4] 0.023 | [5] 0.025

AKNA (UniProt Q7Z591)
inactive: [1] -0.057 | [2] 0.256 | [3] 0.042 | [4] 0.056 | [5] -0.011

ACVR1 (UniProt Q04771)
inactive: [1] -0.052 | [2] -0.055 | [4] -0.102 | [5] -0.126

AGTRAP (UniProt Q6RW13)
inactive: [1] -0.157 | [2] -0.109 | [3] -0.023 | [4] -0.168 | [5] -0.094

ACTN2, A0A494C031
inactive: [1] -0.079 | [2] 0.075 | [3] 0.187 | [5] 0.007

AEBP2 (UniProt Q6ZN18)
inactive: [1] 0.097 | [2] -0.085 | [4] -0.032

AIFM2 (UniProt Q9BRQ8)
active: [1] 0.668
inactive: [2] 0.008 | [3] 0.039 | [4] -0.007 | [5] -0.1

ADAT3 (UniProt Q96EY9)
inactive: [1] -0.031 | [2] 0.006 | [3] 0.008 | [4] -0.036 | [5] 0.034

AKR1A1 (UniProt P14550)
inactive: [1] 0.009 | [2] 0.015 | [3] 0.03 | [4] 0.023 | [5] 0.027

ADPRHL2 (UniProt Q9NX46)
inactive: [1] 0.008 | [2] -0.011 | [3] 0.018 | [4] -0.014 | [5] 0.069

ACP1 (UniProt P24666)
inactive: [1] -0.032 | [2] 0.083 | [3] 0.039 | [4] 0.082 | [5] 0.021

AHCY (UniProt P23526)
inactive: [1] 0.004 | [2] 0.021 | [3] 0.002 | [4] 0.022 | [5] 0

ACTN1 isoform 3 (UniProt P12814)
inactive: [1] 0.006 | [2] 0.014 | [3] -0.016 | [4] 0 | [5] 0.016

ACSS1 (UniProt Q9NUB1)
inactive: [1] 0.009 | [2] -0.064 | [4] 0.089 | [5] -0.037

AGGF1 (UniProt Q8N302)
inactive: [1] 0.042 | [2] 0.049 | [3] 0.024 | [5] -0.149

ACOX3 (UniProt O15254)
inactive: [1] 0.209 | [2] 0.224 | [4] 0.087

Copied from above (6 entries):
AKR1A1 (UniProt P14550)
inactive: [1] 0.009 | [2] 0.015 | [3] 0.03 | [4] 0.023 | [5] 0.027

ADPRHL2 (UniProt Q9NX46)
inactive: [1] 0.008 | [2] -0.011 | [3] 0.018 | [4] -0.014 | [5] 0.069

ACP1 (UniProt P24666)
inactive: [1] -0.032 | [2] 0.083 | [3] 0.039 | [4] 0.082 | [5] 0.021

AHCY (UniProt P23526)
inactive: [1] 0.004 | [2] 0.021 | [3] 0.002 | [4] 0.022 | [5] 0

ACTN1 isoform 3 (UniProt P12814)
inactive: [1] 0.006 | [2] 0.014 | [3] -0.016 | [4] 0 | [5] 0.016

ACSS1 (UniProt Q9NUB1)
inactive: [1] 0.009 | [2] -0.064 | [4] 0.089 | [5] -0.037

Further entries follow:

ACTB, A0A2R8YGF8
inactive: [1] 0.046 | [2] 0.023 | [3] 0.098 | [5] 0.188

AGK (UniProt Q53H12)
inactive: [1] -0.029 | [2] 0.032 | [3] -0.017 | [4] 0.032 | [5] 0.023
